Assay [1] relates to Phosphorylation of ERK1/2 in MIA PaCa-2 cells. The assay can be described thus: Phospho-ERK1/2 MSD Assay, MIA PaCa-2 (Table 15 conditions: 4 hours compound treatment). The note with it: read-out: p-ERK IC50 (MIA PaCa-2), EGF stimulation.
In assay [2] the test system is Phosphorylation of ERK1/2 in A549 cells. The assay can be described thus: Phospho-ERK1/2 MSD Assay, A549 (Table 15 conditions: 4 hours compound treatment). The note with it: read-out: p-ERK IC50 (A549), EGF stimulation.

The structures given here were assigned with low confidence; some may be wrong.

As usually defined, the IC50 is the point on the concentration scale where inhibition reaches its midpoint. On to `C=CC(=O)N1CCN(c2snc3c(F)c(-c4cc(O)cc5ccccc45)c(Cl)cc23)[C@@H](CCO)C1`, for which the results for the IC50 in assay [1] and in assay [2] were 8.2 µM and greater than 100 µM, respectively.
